# Data source: PubChem BioAssay AID1259254 (NCATS, 2017)
# Screen: 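Genome-wide screen for genes that prevent DNA re-replication in cancer cells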 (primary screen)
# System: human HCT116 colorectal cancer cells
# Knock-down reagent: single siRNA against human genes
# Time to read-out: 3 days
# Measurement: 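Imaged Hoechst DNA stain sorts each cell into a cycle phase by DNA amount; per plate, G2 fraction set to 0% for non-targeting and 100% for GMNN siRNA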
# Reading the numbers: G2 robust z-score and G2 cells, % of GMNN control: higher = more G2 cells, more excess DNA replication
# Rule for the call: 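An siRNA counts as active if its G2 robust z-score lies at least 5 MADs above the screen median; here such calls match roughly 38% of GMNN control or more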
# In all, the deposit lists about 59,000 reagents; this is a part drawn at random. In the full data, about 1,550 (2.6%) were called active. 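G2 share is only a proxy for re-replication; each gene was hit by three separate siRNAs, and active genes were retested.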 The numbers tell different reagents against one gene apart. Further read-outs or replicates are left out here. The record does not give: the amount of reagent.
target gene,siRNA no.,G2 robust z-score,"G2 cells, % of GMNN control",outcome
NUDT11 (nudix hydrolase 11),1,1.69,14.9,inactive
NUDT11 (nudix hydrolase 11),2,0.739,8.17,inactive
NUDT11 (nudix hydrolase 11),3,-0.858,-3.07,inactive
TSPYL5 (TSPY like 5),1,-0.0919,2.32,inactive
TSPYL5 (TSPY like 5),2,0.462,6.22,inactive
TSPYL5 (TSPY like 5),3,-0.352,0.492,inactive
BAG6 (BAG cochaperone 6),1,-0.49,-0.479,inactive
BAG6 (BAG cochaperone 6),2,0.769,8.38,inactive
BAG6 (BAG cochaperone 6),3,0.36,5.5,inactive
GSN (gelsolin),1,2.07,17.5,inactive
GSN (gelsolin),2,-0.321,0.71,inactive
GSN (gelsolin),3,-0.0732,2.45,inactive
TOPBP1 (DNA topoisomerase II binding protein 1),1,2.27,18.9,inactive
TOPBP1 (DNA topoisomerase II binding protein 1),2,-0.646,-1.58,inactive
TOPBP1 (DNA topoisomerase II binding protein 1),3,-0.741,-2.24,inactive
MALT1 (MALT1 paracaspase),1,-1.63,-8.51,inactive
MALT1 (MALT1 paracaspase),2,2.73,22.2,inactive
MALT1 (MALT1 paracaspase),3,-0.0254,2.79,inactive
C1orf53 (chromosome 1 open reading frame 53),1,-0.126,2.08,inactive
C1orf53 (chromosome 1 open reading frame 53),2,-0.51,-0.623,inactive
C1orf53 (chromosome 1 open reading frame 53),3,0.867,9.07,inactive
OR2T12 (olfactory receptor family 2 subfamily T member 12),1,-1.06,-4.5,inactive
OR2T12 (olfactory receptor family 2 subfamily T member 12),2,0.188,4.29,inactive
OR2T12 (olfactory receptor family 2 subfamily T member 12),3,0.306,5.12,inactive
RPS24P4 (ribosomal protein S24 pseudogene 4),1,-0.0524,2.6,inactive
RPS24P4 (ribosomal protein S24 pseudogene 4),2,-0.67,-1.75,inactive
RPS24P4 (ribosomal protein S24 pseudogene 4),3,0.191,4.31,inactive
"GREM1 (gremlin 1, DAN family BMP antagonist)",1,0.368,5.55,inactive
"GREM1 (gremlin 1, DAN family BMP antagonist)",2,0.0787,3.52,inactive
"GREM1 (gremlin 1, DAN family BMP antagonist)",3,-0.358,0.449,inactive

Looked up above:
For “G2 robust z-score”, NUDT11 (nudix hydrolase 11) #2 has 0.739
For “G2 robust z-score”, GREM1 (gremlin 1, DAN family BMP antagonist) #2 is entered as 0.0787
For “G2 cells, % of GMNN control”, TOPBP1 (DNA topoisomerase II binding protein 1) #2 has -1.58
Under “G2 cells, % of GMNN control”, BAG6 (BAG cochaperone 6) #3 is entered as 5.5
